pIC50: −log10 of the molar value. The match of structure and compound is tentative.
Legend:
[1] = target: EED protein (Homo sapiens, UniProt O75530); experiment: EED protein degradation in Karpas-422 cells, In-cell western (ICW); details: 18 hours incubation
From the text: In this experiment, In-cell western (ICW) method was used to quantitatively analyze the EED protein expression level in Karpas-422 cells to detect the degradation activity of the compounds on the target protein. The specific steps were as follows: • 1. Karpas-422 cells were purchased from Nanjing Cobioer (Catalog No. CBP60629), subcultured and maintained in logarithmic growth state using RPMI-1640 complete medium (containing 10% v/v fetal bovine serum) according to the supplier's recommended conditions. […] One day before cell seeding, a 384-well plate was coated with 30 µL of coating buffer (phosphate buffered saline containing 30 µg/mL poly-D-lysine) at room temperature for 2 hours. The coating solution was then discarded, and the plate was washed once with 90 µL of phosphate buffered saline, which was then discarded. The plate was allowed to air dry naturally in a clean bench, wrapped around the edges with Parafilm to prevent moisture, and stored in a 4°C refrigerator until use. • 3. Before cell seeding, cells were collected in a centrifuge tube, centrifuged at 250 rcf for 3 minutes, and the culture medium was discarded. The cells were resuspended in fresh complete medium, and 20 µL of the cell suspension was taken to calculate the cell concentration using a Countstar cell counter. After adjusting the density, cells were seeded into the prepared coated plate at 15,000 cells/45 µL and pre-incubated in a 37°C, 5% CO2 incubator for 4 hours. • 4. The negative and positive control groups were treated with 5 µL of control solution (serum-free medium containing 1% v/v DMSO). Compound gradient dilutions were prepared using the control solution, and 5 µL of the dilutions were added to the corresponding culture wells. The final concentration of DMSO in the test was 0.1% v/v. Subsequently, the plate was incubated in a 37°C, 5% CO2 incubator for 18 hours. • 5. The culture plate was removed, and cells were fixed by directly adding 10 µL of fixative solution (phosphate buffered saline containing 3% v/v glutaraldehyde) to the cells and incubating at room temperature for 30 minutes. The liquid was discarded. Subsequently, cells were treated with 30 µL of permeabilization staining solution (phosphate buffered saline containing 0.1% v/v Triton X-100 and 20 µg/mL Hoechst 33342) at room temperature for 30 minutes. The permeabilization solution was discarded, and the fluorescence value (excitation at 360 nm, emission at 460 nm) was read on a microplate reader. • 6. 50 µL of repair solution (50 mM citric acid buffer) was added to all wells, and the plate was incubated at 70°C for 2 hours on a constant temperature incubation shaker. The microplate was then removed, equilibrated to room temperature, and the liquid was discarded. • 7. A sufficient amount of antibody dilution buffer (Tris Buffered Saline-Tween solution containing 1% w/v bovine serum albumin) was prepared and stored in a 4°C refrigerator until use. • 8. Primary antibody dilution (EED antibody diluted 1:1000 with antibody dilution buffer) was prepared. 30 µL of antibody dilution buffer without antibody was added to the negative control group. 30 µL of the primary antibody dilution was added to the cells in the other groups, and the plate was incubated overnight at 4°C. • 9. The primary antibody dilution was discarded. The plate was washed 3 times with 90 µL of Tris Buffered Saline-Tween solution, and the wash solution was discarded. Secondary antibody dilution (HRP-linked antibody diluted 1:500 with antibody dilution buffer) was prepared, and 30 µL was added to the cells. The plate was incubated at room temperature for 2 hours. • 10. The secondary antibody dilution was discarded. The plate was washed 3 times with 90 µL of Tris Buffered Saline-Tween solution, and the wash solution was discarded. 30 µL of TMB substrate solution was added, and the plate was incubated at room temperature in the dark for 15 minutes. Then, 30 µL of stop solution (2 M sulfuric acid) was added to terminate the reaction. […]

The chains behind the UniProt entries cited, without tags or fusion partners.
UniProt O75530, whole entry: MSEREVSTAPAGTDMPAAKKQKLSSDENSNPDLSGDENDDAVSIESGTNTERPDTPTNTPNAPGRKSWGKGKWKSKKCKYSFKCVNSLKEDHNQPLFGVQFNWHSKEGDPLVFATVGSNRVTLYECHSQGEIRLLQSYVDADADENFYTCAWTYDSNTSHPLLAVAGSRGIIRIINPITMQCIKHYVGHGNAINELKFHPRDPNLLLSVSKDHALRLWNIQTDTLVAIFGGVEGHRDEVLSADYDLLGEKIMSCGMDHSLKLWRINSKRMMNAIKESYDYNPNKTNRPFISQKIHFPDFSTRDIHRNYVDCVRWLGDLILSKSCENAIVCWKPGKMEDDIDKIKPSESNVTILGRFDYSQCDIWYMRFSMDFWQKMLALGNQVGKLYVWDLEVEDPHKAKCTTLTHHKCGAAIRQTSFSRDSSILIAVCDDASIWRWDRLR

[2] = system: Pfeiffer cells; experiment: Proliferation inhibition of Pfeiffer tumor cells, Cell Titer-Glo; details: read-out: CTG IC50, 144 hours incubation
From the text: In this experiment, Cell Titer-Glo reagent was used to quantitatively analyze the proliferation activity of Pfeiffer cells to detect the inhibitory ability of the compounds on tumor cell proliferation. The specific steps were as follows: • 1. Pfeiffer cells were purchased from Nanjing Cobioer (purchased from ATCC, Catalog No. #CRL2632), subcultured and maintained in logarithmic growth state using RPMI-1640 complete medium (containing 10% v/v fetal bovine serum) according to the supplier's recommended conditions. […] Before cell seeding, cells were collected in a centrifuge tube, centrifuged at 250 rcf for 3 minutes, and the culture medium was discarded. The cells were resuspended in fresh complete medium, and 20 µL of the cell suspension was taken to calculate the cell concentration using a Countstar cell counter. After adjusting the density, cells were seeded into a 384-well plate at 2,000 cells/45 µL and pre-incubated in a 37°C, 5% CO2 incubator for 4 hours. • 3. The negative and positive control groups were treated with 5 µL of control solution (non-complete medium containing 1% v/v DMSO). Compound gradient dilutions were prepared using non-complete medium, and 5 µL of the dilutions were added to the corresponding culture wells. The final concentration of DMSO in the test was 0.1% v/v. Subsequently, the plate was incubated in a 37°C, 5% CO2 incubator for 144 hours. • 4. 40 µL of Cell Titer-Glo reagent was added directly to the cell culture, and the plate was incubated at room temperature in the dark for 30 minutes. The luminescence value was then read on a plate reader, and the results were used to analyze the cell proliferation ratio and compound activity. • 5. The signal value of the negative control group was set as Bottom, and the signal value of the positive control group was set as Top. The compound concentration value (logarithm) was the X-axis, and the luminescence reading at the corresponding concentration was the Y-axis, with HillSlope as the slope factor. A four-parameter logistic model (4PL logistic model) was used for fitting, and the calculation method was as follows:Y = Bottom + (Top - Bottom) / (1 + 10^((Log IC50 - X) × HillSlope))
After fitting, the IC50 value of the compound was calculated, and the proliferation inhibitory activity of the compound was compared based on the IC50 value.

| Dmax [1] | pIC50 [2] | SMILES |
| --- | --- | --- |
| 76% | 7.42 | Cc1ncsc1-c1ccc([C@H](C)NC(=O)[C@@H]2C[C@@H](O)CN2C(=O)[C@@H](NC(=O)C2CN(c3ccc(-c4cnc(NCc5c(F)ccc6c5CCO6)n5cnc(I)c45)cc3)C2)C(C)(C)C)cc1 |
| 63% | 8.22 | Cn1nc(C2CCC(=O)NC2=O)c2cc(F)c(N3CCC(CN4CCC(c5ccc(-c6cnc(NCc7c(F)ccc8c7CCO8)n7cnc(Cl)c67)cc5)CC4)CC3)cc21 (centres unmarked) |
| 57% | 9.15 | Cn1c(=O)n(C2CCC(=O)NC2=O)c2ccc(N3CCC(CN4CCC(c5cccc(-c6cnc(NCc7c(F)ccc8c7CCO8)n7cnc(Cl)c67)c5)CC4)CC3)cc21 (centres unmarked) |
| 54% | 7.60 | Cn1nc(C2CCC(=O)NC2=O)c2ccc(N3CCC(CN4CCC(n5cc(-c6cnc(NCc7c(F)ccc8c7CCO8)n7cnc(Cl)c67)c(C(F)(F)F)n5)CC4)CC3)cc21 (centres unmarked) |
| 63% | 7.35 | Cc1nc(C(=O)NCCCC(=O)N[C@H](C(=O)N2C[C@H](O)C[C@H]2C(=O)N[C@@H](C)c2ccc(-c3scnc3C)cc2)C(C)(C)C)ccc1-c1cnc(NCc2c(F)ccc3c2CCO3)n2cnc(I)c12 |
| 45% | 8.14 | Cc1cc(CN2CCC(N3CCN(c4ccc5c(C6CCC(=O)NC6=O)nn(C)c5c4)CC3)C(F)(F)C2)ccc1-c1cnc(NCc2c(F)ccc3c2CCO3)n2cnc(Cl)c12 (centres unmarked) |
| 43% | 7.15 | Cc1cc(CN2CCC(N3CCN(c4ccc5c(c4)n(C)c(=O)n5C4CCC(=O)NC4=O)CC3)C(F)(F)C2)ccc1-c1cnc(NCc2c(F)ccc3c2CCO3)n2cnc(Cl)c12 (centres unmarked) |
| 53% | 8.94 | Cn1nc(C2CCC(=O)NC2=O)c2ccc(N3CCN(C4CCN(Cc5ccc(-c6cnc(NCc7c(F)ccc8c7CCO8)n7cnc(Cl)c67)cn5)CC4(F)F)CC3)cc21 (centres unmarked) |
| 74% | 8.30 | Cc1ncsc1-c1ccc([C@H](C)NC(=O)[C@@H]2C[C@@H](O)CN2C(=O)C(c2cc(N3CCN(CC4CCN(c5ccc(-c6cnc(NCc7c(F)ccc8c7CCO8)n7cnnc67)cc5)CC4)CC3)no2)C(C)C)cc1 (some centres unmarked) |
| 62% | 7.89 | Cn1c(=O)n(C2CCC(=O)NC2=O)c2ccc(N3CCC(CN4CCC(c5ccc(-c6cnc(NCc7c(F)ccc8c7CCO8)n7cnc(Cl)c67)cc5)CC4)C(F)(F)C3)cc21 (centres unmarked) |
| 48% | 8.15 | Cn1nc(C2CCC(=O)NC2=O)c2ccc(N3CCC(CN4CCC(c5ccc(-c6cnc(NCc7c(F)ccc8c7CCO8)c7nc(C#N)cn67)cc5)CC4)CC3)cc21 (centres unmarked) |
| 71% | 8.15 | Cn1nc(C2CCC(=O)NC2=O)c2ccc(N3CCC(CN4CCC(n5cc(-c6cnc(NCc7c(F)ccc8c7CCO8)n7cnc(Cl)c67)cn5)CC4)C(F)(F)C3)cc21 (centres unmarked) |
| 61% | 9.15 | Cc1nc(C2CCN(CC3CCN(c4ccc5c(c4)n(C)c(=O)n5C4CCC(=O)NC4=O)CC3)CC2)ccc1-c1cnc(NCc2c(F)ccc3c2CCO3)n2cnc(S(C)(=O)=O)c12 (centres unmarked) |
| 56% | 7.70 | Cc1nc(N2CCC(CN3CCN(c4ccc5c(C6CCC(=O)NC6=O)nn(C)c5c4)CC3)CC2)ccc1-c1cnc(NCc2c(F)ccc3c2CCO3)n2cnc(Cl)c12 (centres unmarked) |
| 64% | 8.40 | Cn1nc(C2CCC(=O)NC2=O)c2cc(F)c(N3CCC(CN4CCC(c5ccc(-c6cnc(NCc7c(F)ccc8c7CCO8)n7cnc(F)c67)cc5)CC4)CC3)cc21 (centres unmarked) |
| 62% | 7.89 | Cc1nc(N2CCN(CC3CCN(c4ccc5c(C6CCC(=O)NC6=O)nn(C)c5c4)CC3)CC2)ccc1-c1cnc(NCc2c(F)ccc3c2CCO3)n2cnc(Cl)c12 (centres unmarked) |
| 75% | 8.15 | Cc1ncsc1-c1ccc([C@H](C)NC(=O)[C@@H]2C[C@@H](O)CN2C(=O)[C@@H](NC(=O)CCCNC(=O)c2ccc(-c3cnc(NCc4c(F)ccc5c4CCO5)n4cnc(Cl)c34)cn2)C(C)(C)C)cc1 |
| 67% | 8.30 | Cn1nc(C2CCC(=O)NC2=O)c2ccc(N3CCC(CN4CCC(c5ccc(-c6cnc(NCc7c(F)ccc8c7CCO8)n7cnc(C(F)(F)F)c67)cc5)CC4)CC3)cc21 (centres unmarked) |
| 66% | > 10.00 | Cn1c(=O)n(C2CCC(=O)NC2=O)c2ccc(N3CCC(CN4CCC(c5ccc(-c6cnc(NCc7c(F)ccc8c7CCO8)n7cnc(Cl)c67)cn5)CC4)CC3)cc21 (centres unmarked) |
| 56% | 8.70 | Cc1nc(C2CCN(CC3CCN(c4cc5c(cc4F)c(C4CCC(=O)NC4=O)nn5C)CC3)CC2)ccc1-c1cnc(NCc2c(F)ccc3c2CCO3)n2cnc(Cl)c12 (centres unmarked) |
| 71% | 9.30 | Cn1c(=O)n(C2CCC(=O)NC2=O)c2cc(F)c(N3CCC(CN4CCC(c5ccc(-c6cnc(NCc7c(F)ccc8c7CCO8)n7cnnc67)cc5)CC4)CC3)cc21 (centres unmarked) |
| 65% | 8.40 | Cc1nn(C2CCN(CC3CCN(c4ccc5c(C6CCC(=O)NC6=O)nn(C)c5c4)CC3)CC2)c(C)c1-c1cnc(NCc2c(F)ccc3c2CCO3)n2cnc(Cl)c12 (centres unmarked) |
| 70% | 9.30 | Cc1nc(C2CCN(CC3CCN(c4ccc5c(c4)n(C)c(=O)n5C4CCC(=O)NC4=O)CC3)CC2)ccc1-c1cnc(NCc2c(F)ccc3c2CCO3)n2cc(C#N)nc12 (centres unmarked) |
| 78% | 7.22 | Cc1ncsc1-c1ccc([C@H](C)NC(=O)[C@@H]2C[C@@H](O)CN2C(=O)[C@@H](NC(=O)CCCNC(=O)c2ccc(-c3cnc(NCc4c(F)ccc5c4CCO5)n4cnc(C)c34)cn2)C(C)(C)C)cc1 |
| 77% | 7.77 | Cc1ncsc1-c1ccc([C@H](C)NC(=O)[C@@H]2C[C@@H](O)CN2C(=O)[C@@H](NC(=O)CCCNC(=O)c2ccc(-c3cnc(NCc4c(F)ccc5c4CCO5)n4cnc(C#N)c34)cn2)C(C)(C)C)cc1 |
| 59% | 8.05 | N#Cc1cn2c(NCc3c(F)ccc4c3CCO4)ncc(-c3ccc(C4CCN(CC5CCN(c6ccc7c(c6)C(=O)N(C6CCC(=O)NC6=O)C7=O)CC5)CC4)cc3)c2n1 (centres unmarked) |
| 67% | > 10.00 | Cn1c(=O)n(C2CCC(=O)NC2=O)c2ccc(N3CCC(CN4CCC(NC(=O)c5ccc(-c6cnc(NCc7c(F)ccc8c7CCO8)n7cnc(Cl)c67)cn5)CC4)CC3)cc21 (centres unmarked) |
| 66% | 9.15 | Cn1nc(C2CCC(=O)NC2=O)c2ccc(N3CCC(CN4CCC(NC(=O)c5ccc(-c6cnc(NCc7c(F)ccc8c7CCO8)n7cnc(Cl)c67)cn5)CC4)CC3)cc21 (centres unmarked) |
